Test results as given in the supplement of paper PMC10849652.
The other results are listed elsewhere or left out.

The chains behind the UniProt entries cited, without tags or fusion partners. Where a name states a change or a piece, a line headed by the entry shows the natural chain unless it says otherwise.
UniProt Q9UJV9: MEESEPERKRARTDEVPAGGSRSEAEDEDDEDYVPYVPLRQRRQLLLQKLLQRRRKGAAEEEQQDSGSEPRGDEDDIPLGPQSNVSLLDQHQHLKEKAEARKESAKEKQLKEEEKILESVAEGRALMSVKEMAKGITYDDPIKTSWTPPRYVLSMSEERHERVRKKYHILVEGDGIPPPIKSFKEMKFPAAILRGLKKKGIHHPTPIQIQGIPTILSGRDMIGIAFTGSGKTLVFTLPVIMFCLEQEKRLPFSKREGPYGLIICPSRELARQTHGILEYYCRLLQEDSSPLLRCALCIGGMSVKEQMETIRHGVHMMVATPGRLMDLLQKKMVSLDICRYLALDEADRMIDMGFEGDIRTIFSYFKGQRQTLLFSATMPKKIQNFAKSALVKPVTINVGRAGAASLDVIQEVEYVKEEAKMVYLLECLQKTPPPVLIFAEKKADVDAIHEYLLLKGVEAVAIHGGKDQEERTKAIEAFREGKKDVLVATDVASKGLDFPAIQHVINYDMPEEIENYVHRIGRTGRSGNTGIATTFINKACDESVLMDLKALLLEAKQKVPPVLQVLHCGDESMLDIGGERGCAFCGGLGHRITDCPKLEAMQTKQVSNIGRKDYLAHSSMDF
UniProt Q96GG9: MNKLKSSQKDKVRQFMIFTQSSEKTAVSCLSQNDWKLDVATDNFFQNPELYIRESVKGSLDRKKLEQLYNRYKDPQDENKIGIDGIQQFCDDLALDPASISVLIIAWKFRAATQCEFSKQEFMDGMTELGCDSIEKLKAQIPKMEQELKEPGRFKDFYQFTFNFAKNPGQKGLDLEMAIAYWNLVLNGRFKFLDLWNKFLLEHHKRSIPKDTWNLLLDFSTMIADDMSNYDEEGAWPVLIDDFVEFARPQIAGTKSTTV
UniProt O00148, whole entry, looked up: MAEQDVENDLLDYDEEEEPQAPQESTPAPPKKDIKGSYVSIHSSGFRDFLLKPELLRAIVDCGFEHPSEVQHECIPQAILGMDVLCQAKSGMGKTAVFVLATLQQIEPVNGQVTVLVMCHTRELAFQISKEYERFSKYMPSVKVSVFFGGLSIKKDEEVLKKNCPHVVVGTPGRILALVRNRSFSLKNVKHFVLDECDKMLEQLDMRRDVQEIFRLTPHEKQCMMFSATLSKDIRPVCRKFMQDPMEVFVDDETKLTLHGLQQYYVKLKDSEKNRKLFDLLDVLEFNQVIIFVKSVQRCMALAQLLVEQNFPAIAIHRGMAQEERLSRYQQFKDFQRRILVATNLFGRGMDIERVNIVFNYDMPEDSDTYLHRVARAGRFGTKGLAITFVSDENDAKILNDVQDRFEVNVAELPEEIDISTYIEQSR
UniProt Q5TDH0: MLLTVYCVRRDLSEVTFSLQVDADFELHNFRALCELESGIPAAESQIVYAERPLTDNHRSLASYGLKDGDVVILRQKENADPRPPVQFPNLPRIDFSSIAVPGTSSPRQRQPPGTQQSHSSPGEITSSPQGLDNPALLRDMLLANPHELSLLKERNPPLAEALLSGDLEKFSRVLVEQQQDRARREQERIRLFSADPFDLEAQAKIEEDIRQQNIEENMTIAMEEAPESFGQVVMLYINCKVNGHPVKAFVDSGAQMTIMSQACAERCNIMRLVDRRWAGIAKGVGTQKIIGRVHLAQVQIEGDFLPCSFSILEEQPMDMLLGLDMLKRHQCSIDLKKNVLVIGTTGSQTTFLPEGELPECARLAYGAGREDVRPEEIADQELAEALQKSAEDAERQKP
UniProt Q8IWF6: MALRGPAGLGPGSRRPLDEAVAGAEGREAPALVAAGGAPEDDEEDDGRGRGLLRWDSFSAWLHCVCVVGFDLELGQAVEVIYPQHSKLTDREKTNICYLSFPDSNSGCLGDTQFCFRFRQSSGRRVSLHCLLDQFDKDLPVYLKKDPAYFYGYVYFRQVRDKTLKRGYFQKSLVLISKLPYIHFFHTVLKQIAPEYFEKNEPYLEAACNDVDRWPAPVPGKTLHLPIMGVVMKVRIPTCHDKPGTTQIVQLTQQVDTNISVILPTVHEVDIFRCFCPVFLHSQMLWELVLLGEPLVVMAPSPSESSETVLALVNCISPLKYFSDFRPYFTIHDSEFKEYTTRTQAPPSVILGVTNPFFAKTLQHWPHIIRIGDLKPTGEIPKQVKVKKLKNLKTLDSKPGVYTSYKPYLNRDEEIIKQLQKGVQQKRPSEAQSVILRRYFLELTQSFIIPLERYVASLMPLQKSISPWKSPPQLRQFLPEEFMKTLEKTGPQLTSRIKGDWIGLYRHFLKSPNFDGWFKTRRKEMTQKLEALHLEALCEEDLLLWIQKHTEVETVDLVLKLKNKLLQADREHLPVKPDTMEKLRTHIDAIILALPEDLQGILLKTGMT
UniProt Q9GZR7: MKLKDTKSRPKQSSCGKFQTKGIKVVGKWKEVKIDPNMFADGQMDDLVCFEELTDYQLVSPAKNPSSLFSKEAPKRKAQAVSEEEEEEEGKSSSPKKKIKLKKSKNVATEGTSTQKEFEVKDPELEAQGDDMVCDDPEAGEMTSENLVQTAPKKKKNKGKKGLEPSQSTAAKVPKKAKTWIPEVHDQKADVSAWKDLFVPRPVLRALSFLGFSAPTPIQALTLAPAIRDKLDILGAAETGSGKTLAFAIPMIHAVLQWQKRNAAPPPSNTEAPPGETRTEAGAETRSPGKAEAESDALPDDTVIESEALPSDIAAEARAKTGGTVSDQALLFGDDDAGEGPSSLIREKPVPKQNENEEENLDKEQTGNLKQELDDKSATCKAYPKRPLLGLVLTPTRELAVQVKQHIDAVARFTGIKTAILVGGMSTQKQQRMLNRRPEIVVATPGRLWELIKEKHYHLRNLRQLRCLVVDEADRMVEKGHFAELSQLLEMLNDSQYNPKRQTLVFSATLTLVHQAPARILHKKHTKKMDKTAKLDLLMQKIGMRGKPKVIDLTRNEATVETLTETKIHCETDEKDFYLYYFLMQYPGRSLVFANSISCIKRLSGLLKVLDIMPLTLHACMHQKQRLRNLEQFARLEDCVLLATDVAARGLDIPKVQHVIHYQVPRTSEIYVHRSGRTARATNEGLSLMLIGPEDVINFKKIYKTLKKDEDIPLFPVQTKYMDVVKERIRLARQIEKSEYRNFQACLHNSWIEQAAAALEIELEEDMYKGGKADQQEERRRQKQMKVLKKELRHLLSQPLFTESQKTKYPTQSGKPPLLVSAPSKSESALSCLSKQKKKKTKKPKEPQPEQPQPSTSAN
UniProt Q16531, whole entry, looked up: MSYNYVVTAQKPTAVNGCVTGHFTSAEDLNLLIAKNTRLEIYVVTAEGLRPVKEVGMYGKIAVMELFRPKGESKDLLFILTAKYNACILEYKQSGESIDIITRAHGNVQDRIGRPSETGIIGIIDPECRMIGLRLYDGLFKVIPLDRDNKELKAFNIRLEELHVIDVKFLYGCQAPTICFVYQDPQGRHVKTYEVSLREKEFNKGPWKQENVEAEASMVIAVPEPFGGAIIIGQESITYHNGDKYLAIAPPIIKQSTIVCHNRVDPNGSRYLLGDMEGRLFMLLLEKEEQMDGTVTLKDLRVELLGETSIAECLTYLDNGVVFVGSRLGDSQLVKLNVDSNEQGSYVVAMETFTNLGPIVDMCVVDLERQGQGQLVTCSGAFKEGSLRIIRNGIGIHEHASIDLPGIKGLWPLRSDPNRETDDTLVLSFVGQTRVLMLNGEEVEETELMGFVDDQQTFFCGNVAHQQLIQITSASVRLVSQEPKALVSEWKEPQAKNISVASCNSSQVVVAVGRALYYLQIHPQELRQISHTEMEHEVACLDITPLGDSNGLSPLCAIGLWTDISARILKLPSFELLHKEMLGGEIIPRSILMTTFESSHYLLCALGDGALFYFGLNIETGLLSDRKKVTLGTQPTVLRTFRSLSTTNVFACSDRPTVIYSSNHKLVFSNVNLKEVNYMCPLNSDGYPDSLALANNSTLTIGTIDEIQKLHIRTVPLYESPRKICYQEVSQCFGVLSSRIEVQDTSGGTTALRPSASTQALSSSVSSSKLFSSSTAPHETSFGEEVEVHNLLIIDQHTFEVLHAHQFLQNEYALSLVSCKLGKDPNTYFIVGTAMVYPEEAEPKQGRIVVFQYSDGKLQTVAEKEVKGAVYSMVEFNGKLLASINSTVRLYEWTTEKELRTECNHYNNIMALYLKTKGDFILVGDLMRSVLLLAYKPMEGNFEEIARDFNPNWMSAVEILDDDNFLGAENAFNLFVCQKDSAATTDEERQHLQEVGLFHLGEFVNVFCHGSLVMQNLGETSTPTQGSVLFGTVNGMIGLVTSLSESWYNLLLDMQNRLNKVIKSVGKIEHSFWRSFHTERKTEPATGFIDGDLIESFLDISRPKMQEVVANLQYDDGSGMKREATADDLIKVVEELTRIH
UniProt Q14118: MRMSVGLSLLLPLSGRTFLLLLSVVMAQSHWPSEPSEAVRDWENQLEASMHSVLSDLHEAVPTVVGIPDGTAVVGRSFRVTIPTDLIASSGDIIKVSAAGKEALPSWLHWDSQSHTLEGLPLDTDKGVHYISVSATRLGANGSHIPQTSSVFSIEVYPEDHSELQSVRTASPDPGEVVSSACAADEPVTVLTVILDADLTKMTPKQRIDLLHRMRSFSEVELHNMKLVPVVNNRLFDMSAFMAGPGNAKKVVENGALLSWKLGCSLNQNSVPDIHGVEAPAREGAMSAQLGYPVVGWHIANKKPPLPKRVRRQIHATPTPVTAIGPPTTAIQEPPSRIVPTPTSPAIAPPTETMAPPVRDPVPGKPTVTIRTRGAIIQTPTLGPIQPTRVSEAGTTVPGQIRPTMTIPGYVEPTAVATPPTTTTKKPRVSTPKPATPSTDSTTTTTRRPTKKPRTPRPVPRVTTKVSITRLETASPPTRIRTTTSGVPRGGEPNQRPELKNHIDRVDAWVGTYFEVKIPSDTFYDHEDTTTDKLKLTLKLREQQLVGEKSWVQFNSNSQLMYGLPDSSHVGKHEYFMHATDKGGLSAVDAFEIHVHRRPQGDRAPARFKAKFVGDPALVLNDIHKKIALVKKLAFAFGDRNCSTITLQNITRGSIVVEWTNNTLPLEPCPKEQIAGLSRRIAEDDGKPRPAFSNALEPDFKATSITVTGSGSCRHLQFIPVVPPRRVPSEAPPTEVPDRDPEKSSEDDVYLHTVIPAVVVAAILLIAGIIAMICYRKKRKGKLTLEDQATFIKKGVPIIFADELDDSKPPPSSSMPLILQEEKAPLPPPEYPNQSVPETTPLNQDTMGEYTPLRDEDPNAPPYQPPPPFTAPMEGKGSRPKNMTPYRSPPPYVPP
UniProt Q9NV06: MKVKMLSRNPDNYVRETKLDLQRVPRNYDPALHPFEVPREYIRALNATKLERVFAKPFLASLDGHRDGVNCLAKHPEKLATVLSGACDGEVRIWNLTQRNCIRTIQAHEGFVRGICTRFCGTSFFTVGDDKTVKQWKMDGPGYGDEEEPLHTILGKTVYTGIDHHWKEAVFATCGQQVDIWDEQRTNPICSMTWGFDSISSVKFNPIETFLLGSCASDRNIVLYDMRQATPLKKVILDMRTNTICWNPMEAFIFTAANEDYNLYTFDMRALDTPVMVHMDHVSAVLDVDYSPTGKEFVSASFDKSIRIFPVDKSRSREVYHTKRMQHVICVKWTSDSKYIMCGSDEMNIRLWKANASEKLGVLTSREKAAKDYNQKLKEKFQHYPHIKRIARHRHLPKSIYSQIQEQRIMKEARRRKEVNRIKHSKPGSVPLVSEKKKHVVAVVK
UniProt Q66K64, whole entry, looked up: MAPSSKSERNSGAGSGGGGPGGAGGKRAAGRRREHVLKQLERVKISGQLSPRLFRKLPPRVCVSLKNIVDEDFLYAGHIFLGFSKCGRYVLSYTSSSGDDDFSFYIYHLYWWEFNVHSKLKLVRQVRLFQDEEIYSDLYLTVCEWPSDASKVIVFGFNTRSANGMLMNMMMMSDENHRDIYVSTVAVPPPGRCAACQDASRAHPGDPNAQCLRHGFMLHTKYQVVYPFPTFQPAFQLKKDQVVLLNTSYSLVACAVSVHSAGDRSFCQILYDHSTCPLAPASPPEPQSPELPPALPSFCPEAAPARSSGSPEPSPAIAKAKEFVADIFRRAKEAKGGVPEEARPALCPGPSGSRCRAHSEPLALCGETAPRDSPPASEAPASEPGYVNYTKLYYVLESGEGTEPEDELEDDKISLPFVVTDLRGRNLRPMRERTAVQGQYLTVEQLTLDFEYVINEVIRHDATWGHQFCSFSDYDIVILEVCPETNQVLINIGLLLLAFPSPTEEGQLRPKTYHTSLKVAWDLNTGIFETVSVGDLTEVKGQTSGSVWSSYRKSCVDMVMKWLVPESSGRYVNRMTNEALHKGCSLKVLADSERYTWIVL
UniProt O75935, whole entry, looked up: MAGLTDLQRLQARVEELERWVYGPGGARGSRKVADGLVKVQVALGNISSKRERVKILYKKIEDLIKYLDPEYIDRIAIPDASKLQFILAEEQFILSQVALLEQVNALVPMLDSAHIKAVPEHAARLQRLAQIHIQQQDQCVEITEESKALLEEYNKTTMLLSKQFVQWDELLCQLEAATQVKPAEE
UniProt Q9NWV4: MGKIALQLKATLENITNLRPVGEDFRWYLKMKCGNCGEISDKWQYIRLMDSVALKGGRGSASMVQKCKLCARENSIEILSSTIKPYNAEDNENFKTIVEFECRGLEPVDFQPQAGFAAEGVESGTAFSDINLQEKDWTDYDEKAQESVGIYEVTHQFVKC

Columns and labels:
Assay in all cases: log2 fold change, soluble protein after heating vs DMSO (PISA); higher = thermal stabilisation; K562 lysate, 10 uM; active = over 0.2 and 3.5 SD of the protein, either way, in both replicates (recomputed)
nilotinib = compound: Cc1cn(-c2cc(NC(=O)c3ccc(C)c(Nc4nccc(-c5cccnc5)n4)c3)cc(C(F)(F)F)c2)cn1 [nilotinib]
Method in brief: (§1)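 K562 pellets were dounce-homogenised in PBS pH 7.4 containing 1 mM MgCl2, and the crude extract, at 1 mg/mL protein, was exposed to 10 μM compound for 30 min. Aliquots were heated for 3 min across 48°C-58°C, pooled, brought to 0.5% NP-40 at 4°C and spun at 21,000xg for 90 min, with the supernatant taken as soluble protein. TMTpro 16plex LC-MS/MS with equalised channel sums quantified that protein. Values are log-two fold changes in thermal stability relative to solvent controls, taken from duplicates.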

[1] = compound: Cc1nc(Nc2n[nH]c3c2CN(C(=O)N[C@H](CN(C)C)c2ccccc2)C3(C)C)c2sccc2n1
Method in brief: as §1

dasatinib = compound: Cc1nc(Nc2ncc(C(=O)Nc3c(C)cccc3Cl)s2)cc(N2CCN(CCO)CC2)n1 [dasatinib]
Method in brief: as §1

[2] = compound: Cc1ncc(-c2ccnc(Nc3ccc(S(C)(=O)=O)cc3)n2)n1C(C)C
Method in brief: as §1

[3] = compound: Cn1cc(-c2ccc3c(c2)CCN3C(=O)Cc2cccc(C(F)(F)F)c2)c2c(N)ncnc21
Method in brief: as §1

quisinostat = compound: Cn1cc(CNCC2CCN(c3ncc(C(=O)NO)cn3)CC2)c2ccccc21 [quisinostat]
Method in brief: as §1

tipifarnib = compound: Cn1cncc1[C@@](N)(c1ccc(Cl)cc1)c1ccc2c(c1)c(-c1cccc(Cl)c1)cc(=O)n2C [tipifarnib]
Method in brief: as §1

[4] = compound: NC(=O)Nc1cc(-c2cccc(F)c2)sc1C(=O)N[C@H]1CCCNC1
Method in brief: as §1

[5] = compound: NC(=O)c1cnc(N[C@@H]2CCCC[C@@H]2N)nc1Nc1cccc(-n2nccn2)c1
Method in brief: as §1

[6] = compound: NC1(c2ccc(-c3nc4ccn5c(=O)[nH]nc5c4cc3-c3ccccc3)cc2)CCC1
Method in brief: as §1

[7] = compound: NCC(=O)Nc1ccc(-n2nc(C(F)(F)F)cc2-c2ccc3c(ccc4ccccc43)c2)cc1
Method in brief: as §1

vorinostat = compound: O=C(CCCCCCC(=O)Nc1ccccc1)NO [vorinostat]
Method in brief: as §1

silmitasertib = compound: O=C(O)c1ccc2c(c1)nc(Nc1cccc(Cl)c1)c1ccncc12 [silmitasertib]
Method in brief: as §1

[8] = compound: O=C1NC(=O)C(c2cnc3ccccn23)=C1c1cn2c3c(cc(F)cc13)CN(C(=O)N1CCCCC1)CC2
Method in brief: as §1

entospletinib = compound: c1cn2cc(-c3ccc4cn[nH]c4c3)nc(Nc3ccc(N4CCOCC4)cc3)c2n1 [entospletinib]
Method in brief: as §1

Target	log2 fold change (nilotinib)	log2 fold change [1]	log2 fold change (dasatinib)	log2 fold change [2]	log2 fold change [3]	log2 fold change (quisinostat)	log2 fold change (tipifarnib)	log2 fold change [4]	log2 fold change [5]	log2 fold change [6]	log2 fold change [7]	log2 fold change (vorinostat)	log2 fold change (silmitasertib)	log2 fold change [8]	log2 fold change (entospletinib)
DDX17 (UniProt Q92841)	inactive: -0.047	inactive: -0.012	inactive: 0.003	inactive: -0.03	inactive: 0.01	inactive: 0.038	inactive: 0.005	inactive: 0.004	inactive: 0.006	inactive: 0.025	inactive: 0.025	inactive: -0.215	inactive: 0.029	inactive: -0.022	inactive: 0.042
DDX41 (UniProt Q9UJV9)	inactive: -0.013	inactive: 0.029	inactive: 0.056	inactive: -0.001	inactive: 0.068	inactive: -0.042	inactive: -0.01	inactive: 0.009	inactive: -0.007	inactive: -0.003	inactive: 0.034	inactive: -0.098	inactive: -0.001	inactive: 0.022	inactive: -0.04
DDX52 (UniProt Q9Y2R4)	inactive: 0.087	inactive: 0.073	inactive: 0.047	inactive: -0.067	inactive: -0.057	inactive: -0.13	inactive: -0.068	inactive: 0.089	inactive: 0.035	inactive: 0.01	inactive: -0.004	inactive: -0.188	inactive: -0.04	inactive: -0.086	inactive: 0.018
DCUN1D1 (UniProt Q96GG9)	inactive: -0.016	inactive: -0.004	inactive: 0.006	inactive: -0.03	inactive: 0.015	inactive: -0.027	inactive: 0.047	inactive: 0.016	inactive: -0.003	inactive: 0.059	inactive: 0.006	inactive: 0.161	inactive: 0.021	inactive: -0.005	inactive: 0.019
DDX39A (UniProt O00148)	inactive: -0.002	inactive: 0.02	inactive: 0.001	inactive: 0.007	inactive: 0.06	inactive: -0.018	inactive: -0.053	inactive: 0.075	inactive: 0.036	inactive: -0.013	inactive: 0.017	active: -0.383	inactive: 0.017	inactive: 0.036	inactive: -0.033
DCP1A (UniProt Q9NPI6)	inactive: 0.022	inactive: 0.117	inactive: -0.052	inactive: -0.023	inactive: -0.001	inactive: -0.042	inactive: 0.039	inactive: 0.008	inactive: -0.041	inactive: -0.03	inactive: -0.03	active: -0.234	inactive: 0.022	inactive: 0.011	inactive: 0.027
DDI2 isoform 3 (UniProt Q5TDH0)	inactive: -0.005	inactive: 0.012	inactive: 0.004	inactive: 0.026	inactive: -0.038	inactive: 0.013	inactive: -0.033	inactive: -0.005	inactive: 0	inactive: 0.008	inactive: -0.003	inactive: 0.075	inactive: 0.001	inactive: 0.006	inactive: 0
DERPC (UniProt P0CG12)	inactive: 0.079	inactive: 0.042	inactive: 0.081	inactive: 0.108	inactive: -0.157	inactive: 0.073	inactive: -0.069	inactive: -0.054	inactive: -0.022	inactive: 0.087	inactive: -0.045	inactive: 0.213	inactive: -0.061	inactive: 0	inactive: -0.019
DDX42 (UniProt Q86XP3)	inactive: 0.009	inactive: 0.023	inactive: -0.024	inactive: 0.026	inactive: 0.015	inactive: 0.006	inactive: 0.028	inactive: 0.041	inactive: 0	inactive: 0	inactive: -0.007	inactive: 0.001	inactive: 0.011	inactive: 0.028	inactive: 0.032
DENND6A (UniProt Q8IWF6)	inactive: 0.012	inactive: -0.009	inactive: 0.053	inactive: 0.017	inactive: 0.095	inactive: -0.084	inactive: -0.041	inactive: 0.018	inactive: -0.032	inactive: -0.011	inactive: -0.049	active: -0.38	inactive: 0.1	inactive: -0.07	inactive: -0.051
DDX24 (UniProt Q9GZR7)	inactive: 0.028	inactive: -0.026	inactive: 0.011	inactive: -0.055	inactive: -0.052	inactive: 0.045	inactive: 0.012	inactive: 0.028	inactive: 0.007	inactive: -0.017	inactive: 0.015	inactive: 0.068	inactive: -0.016	inactive: 0.02	inactive: 0.018
DDB1 (UniProt Q16531)	inactive: 0.005	inactive: 0.005	inactive: 0.048	inactive: -0.007	inactive: 0.004	inactive: -0.004	inactive: 0.011	inactive: -0.012	inactive: -0.025	inactive: -0.003	inactive: 0.003	inactive: 0.101	inactive: -0.007	inactive: -0.022	inactive: 0.01
DAG1 (UniProt Q14118)	inactive: 0.058	inactive: 0.078	inactive: 0.014	inactive: 0.04	inactive: -0.051	inactive: -0.052	inactive: 0.013	inactive: 0.068	inactive: 0.016	inactive: -0.034	inactive: -0.057	inactive: 0.058	inactive: 0	inactive: 0.006	inactive: -0.039
DCUN1D5 (UniProt Q9BTE7)	inactive: 0.009	inactive: 0.001	inactive: -0.018	inactive: 0.01	inactive: 0.002	inactive: -0.097	inactive: -0.062	inactive: 0.058	inactive: 0.031	inactive: 0.006	inactive: 0.003	inactive: -0.18	inactive: 0.084	inactive: -0.015	inactive: 0.06
DDX18 (UniProt Q9NVP1)	inactive: 0.004	inactive: -0.002	inactive: 0.004	inactive: 0.001	inactive: 0.019	inactive: 0.009	inactive: 0.002	inactive: 0.038	inactive: -0.019	inactive: 0	inactive: 0	inactive: 0.071	inactive: 0.048	inactive: -0.022	inactive: 0.008
DENND1B (UniProt Q6P3S1)	inactive: 0.042	inactive: -0.073	inactive: 0.073	inactive: -0.05	inactive: -0.09	inactive: -0.16	inactive: 0.017	inactive: 0.211	inactive: 0.2	inactive: 0.209	inactive: -0.063	active: -1.3	inactive: 0.28	inactive: -0.076	
DCAF13 (UniProt Q9NV06)	inactive: -0.006	inactive: 0.078	inactive: 0.056	inactive: -0.018	inactive: 0.031	inactive: -0.011	inactive: -0.012	inactive: -0.015	inactive: 0.032	inactive: -0.075	inactive: -0.023	inactive: 0.048	inactive: -0.076	inactive: 0	inactive: -0.032
DEF6 (UniProt Q9H4E7)	inactive: -0.058	inactive: 0.046	inactive: -0.034	inactive: 0.033	inactive: 0.006	inactive: -0.044	inactive: 0.027	inactive: 0.067	inactive: 0.044	inactive: -0.01	inactive: 0.085	active: -0.416	inactive: 0.032	inactive: -0.045	inactive: 0.022
DCAF15 (UniProt Q66K64)	inactive: -0.035	inactive: -0.009	inactive: 0	inactive: 0	inactive: 0.072	inactive: 0.022	inactive: 0.097	inactive: 0.081	inactive: -0.055	inactive: -0.039	inactive: 0.125	inactive: -0.24	inactive: 0.071	inactive: 0.006	inactive: -0.01
DCTN3 (UniProt O75935)	inactive: -0.01	inactive: -0.017	inactive: -0.019	inactive: 0.033	inactive: 0.07	inactive: 0.017	inactive: 0.019	inactive: -0.031	inactive: 0.025	inactive: 0.013	inactive: -0.056	inactive: -0.016	inactive: 0.046	inactive: -0.042	inactive: -0.015
CZIB (UniProt Q9NWV4)	inactive: -0.017	inactive: 0.039	inactive: 0.029	inactive: -0.006	inactive: 0.008	inactive: 0.043	inactive: -0.048	inactive: -0.038	inactive: -0.029	inactive: 0.015	inactive: 0.009	inactive: 0.112	inactive: -0.026	inactive: -0.033	inactive: 0.008

Part of the list above, limited to log2 fold change (silmitasertib), log2 fold change [8] and log2 fold change [5].
Target | log2 fold change (silmitasertib) | log2 fold change [8] | log2 fold change [5]
DDB1 (UniProt Q16531) | inactive: -0.007 | inactive: -0.022 | inactive: -0.025
DAG1 (UniProt Q14118) | inactive: 0 | inactive: 0.006 | inactive: 0.016
